These are yes or no findings as the source states them, for the method shown. In cells and extracts the contact can be indirect. A result given as binding can be weak or reduced; the word gives no strength.

The record followed here is paper PMC6814613.

The target in assay [1] is T1, Ninjurin 2 (human (endogenous in HT-29, primary human colon cancer cells and human colon cancer tissue)) (UniProt Q9NZG7).
T1 sequence: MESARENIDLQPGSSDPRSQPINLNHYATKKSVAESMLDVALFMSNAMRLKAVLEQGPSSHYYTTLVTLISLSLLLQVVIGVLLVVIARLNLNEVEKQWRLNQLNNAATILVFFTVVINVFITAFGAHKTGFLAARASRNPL
In words: co-IP; endogenous NINJ2 precipitated with anti-NINJ2 antibody plus protein IgA/G beads from fresh human colon cancer tissue lysates (patients 1-3); bound RTKs detected by Western blotting.

The target in assay [2] is T1, Ninjurin 2 (human (endogenous in HT-29, primary human colon cancer cells and human colon cancer tissue)). As to the kind of experiment: co-IP; endogenous NINJ2 precipitated with anti-NINJ2 antibody plus protein IgA/G beads from 1000 μg lysate of HT-29 cells or primary human colon cancer cells (pri-Can-1); bound RTKs detected by Western blotting. Background: A western blot detects proteins with antibodies after separation by electrophoresis.

For fibroblast growth factor receptor, the binding entry in assay [1] and in assay [2] was “binds” throughout.
